Source: US10428044B2, “3-amino-1,5,6,7-tetrahydro-4H-indol-4-ones” (Bayer Pharma Aktiengesellschaft, priority 2014, dated 2019)

By UniProt entry, the sequences of proteins in these tests, tags left out. Residues count along the entry.
UniProt O43683, 704-1085 limits assumed: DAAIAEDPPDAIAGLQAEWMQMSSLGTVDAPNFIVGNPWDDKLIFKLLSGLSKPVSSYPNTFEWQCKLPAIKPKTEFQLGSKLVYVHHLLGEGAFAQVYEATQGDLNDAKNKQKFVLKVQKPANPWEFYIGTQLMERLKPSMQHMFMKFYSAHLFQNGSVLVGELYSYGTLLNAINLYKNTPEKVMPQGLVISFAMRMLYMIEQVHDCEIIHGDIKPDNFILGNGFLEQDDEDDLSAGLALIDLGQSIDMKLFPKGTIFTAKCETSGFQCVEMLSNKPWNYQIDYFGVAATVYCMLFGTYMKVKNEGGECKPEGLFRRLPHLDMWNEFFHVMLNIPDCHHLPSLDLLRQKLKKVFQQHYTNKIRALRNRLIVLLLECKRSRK

Biological target: (recombinant) catalytic domain of human Bub1 (amino acids 704-1085) (Homo sapiens (Human), UniProt O43683)
Test: Bub1 kinase assay (TR-FRET)
Conditions: read-out: Biological Assay: Bub1 kinase assay median IC50, ATP 10 μM final, peptide substrate 1 μM final, 60 min at 22° C.

O=C(COCc1cccnc1)Nc1cc(-c2[nH]c3c(c2Nc2ccccc2)C(=O)CCC3)ccn1
IC50: 5.28 nM

Structures were worked out from names or drawings and are uncertain.
